One assay has as its target Δ72 R459A GAC. The assay can be described thus: preparative Superdex200 gel filtration, self-association.
The next assay deals with Δ72 R459E GAC. The description is as above.

Binding data for 2 molecules are collected here from patent US20160002619A1 (CORNELL UNIVERSITY, published 2016).

Where a chain is given by its changes, count along the chain named. Names may count otherwise. Results are given in words; binding and its absence hold for the method and conditions named. Some results given as binding are weak or reduced against the parent protein; the word gives no strength.

B1: Δ72 R459A GAC (enzyme)
glutaminase C subunit: LSSSPSEILQELGKGGTPPQQQQQQQQQPGASPPAAPGPKDSPGETDAFGNSEGKEMVAAGDNKIKQGLLPSLEDLLFYTIAEGQEKIPVHKFITALKSTGLRTSDPRLKECMDMLRLTLQTTSDGVMLDKDLFKKCVQSNIVLLTQAFRRKFVIPDFMSFTSHIDELYESAKKQSGGKVADYIPQLAKFSPDLWGVSVCTVDGQRHSIGDTKVPFCLQSCVKPLKYAIAVNDLGTEYVHRYVGKEPSGLRFNKLFLNEDDKPHNPMVNAGAIVVTSLIKQGVNNAEKFDYVMQFLNKMAGNEYVGFSNATFQSERESGDRNFAIGYYLKEKKCFPEGTDMVGILDFYFQLCSIEVTCESASVMAATLANGGFCPITGERVLSPEAVANTLSLMHSCGMYDFSGQFAFHVGLPAKSGVAGGILLVVPNVMGMMCWSPPLDKMGNSVKGIHFCHDLVSLCNFHNYDNLRHFAKKLDPRREGGDQRHSFGPLDYESLQQELALKDTVWKKVSPESSDDTSTTVVYRMESLGERS
In the case of B1, the binding entry with Δ72 R459A GAC is recorded as “binds”.

B2: Δ72 R459E GAC (enzyme)
glutaminase C subunit: B1 glutaminase C subunit with A388E
Take B2: the binding result in the assay with Δ72 R459E GAC was “binds”.
